# From PubChem BioAssay AID248 (DTP/NCI, 2004)
# The list shows only some results of the screen, not a fair sample: it is rich in T/C values a quarter to a half above the control, in often repeated tests (any T/C) and in doses without a T/C. Other doses and runs of a compound stand elsewhere. T/C: endpoint of the treated group in % of that of the vehicle group. Some entries give survivors of the animals treated and no T/C: the source holds a T/C of zero for them, seemingly a mark for toxic or unscored doses. Some doses without a T/C left all or most animals alive at the check, yet need not have been tolerated: survival well below the control is almost never listed, so the zero probably covers shortened survival too. Survivors were counted at the toxicity check, usually on the fifth day, unless a day is given; later deaths do not show. Schedules are NCI's codes, taken here to give the interval after Q, in days (D) or hours (H), and the number of doses after X. Some entries hold several experiments; the results are listed from low to high. Some molecules as drawn cover several salts, stereoisomers or complexes of the source; a dose is that of the sample tested. Some schedules carry Z or #; the key to these is not given. For survival time, the PubChem record calls one and a half times the control and up active, and a quarter to a half above the control has no call in these data; cut-offs in other NCI protocols can differ.
# Tested on: L1210 leukemia ip in BDF1 mice, survival T/C
# Experiment: NCI In Vivo Anticancer Drug Screen. Data for tumor model L1210 Leukemia (intraperitoneal) in B6D2F1 (BDF1) mice
# Settings: T/C endpoint: mean survival time, higher T/C = longer survival
# [1] = dose: 200.0 mg/kg/injection, schedule: Q04DX003 (ip), vehicle: saline
# [2] = dose: 400.0 mg/kg/injection, schedule: Q04DX003 (ip), vehicle: saline
# [3] = dose: 400.0 mg/kg/injection, schedule: Q04DX003 (ip), vehicle: saline with Tween-80
# [4] = dose: 400.0 mg/kg/injection, schedule: Q01DX001 (ip), vehicle: saline
# [5] = dose: 100.0 mg/kg/injection, schedule: Q01DX009 (ip), vehicle: saline with Tween-80
# [6] = dose: 200.0 mg/kg/injection, schedule: Q01DX009 (ip), vehicle: saline with Tween-80
# [7] = dose: 400.0 mg/kg/injection, schedule: Q01DX001 (ip), vehicle: Klucel (hydroxypropylcellulose) (HPC)
# [8] = dose: 400.0 mg/kg/injection, schedule: Q01DX009 (ip), vehicle: saline with Tween-80
# [9] = dose: 200.0 mg/kg/injection, schedule: Q04DX003 (ip), vehicle: saline with Tween-80
# [10] = dose: 200.0 mg/kg/injection, schedule: Q01DX001 (ip), vehicle: other
compound,measurement,setting,value
OCCN1CCN(CCCN2c3ccccc3CCc3ccccc32)CC1,survivor count,[1],3 of 6
same,survivor count,"dose: 250.0 mg/kg/injection, schedule: Q04DX003 (ip), vehicle: saline",0 of 6
same,survivor count,[2],1 of 6
CCOC(=O)c1cn[nH]c1/N=N/N(CCF)CCF,survivor count,"dose: 75.0 mg/kg/injection, schedule: Q01DX001 (ip), vehicle: other",0 of 6
same,survivor count,"dose: 150.0 mg/kg/injection, schedule: Q01DX001 (ip), vehicle: other",0 of 6
same,survivor count,"dose: 300.0 mg/kg/injection, schedule: Q01DX001 (ip), vehicle: other",0 of 6
ClCc1ccc2ccc3cccc4ccc1c2c34,survivor count,"dose: 50.0 mg/kg/injection, schedule: Q01DX009 (ip), vehicle: carboxymethylcellulose (CMC)",4 of 6
Brc1ccc(Nc2c3ccccc3nc3ccccc23)cc1,survivor count,[3],0 of 6
CCN(CC)Cc1cc(Nc2c3ccccc3nc3cc(Cl)ccc23)ccc1O,survivor count,"dose: 100.0 mg/kg/injection, schedule: Q01DX Z (ip), vehicle: saline",3 of 6
same,survivor count,[1],6 of 6
same,survivor count,[2],0 of 6
CCOC(OCC)c1nc(N)nc(N)c1-c1ccc(Cl)c(Cl)c1,T/C,"dose: 200.0 mg/kg/injection, schedule: Q01DX009 (ip), vehicle: saline",136 % of control
same,survivor count,[4],1 of 6
O=C1C=Cc2ccc3c4c(ccc1c24)C=CC3=O,survivor count,"dose: 400.0 mg/kg/injection, schedule: Q04DX003 (ip), vehicle: acetone",4 of 6
CN(C)N=Nc1ccc(C(=O)O)cc1,T/C,[5],130 and 137 % of control
same,survivor count,[6],3 of 3
same,T/C,[1],128 and 132 % of control
NC(=O)c1cc(C(N)=O)cc([N+](=O)[O-])c1,survivor count,[6],3 of 6
same,survivor count,[3],0 of 6
CC1CN(Cc2ccc([N+](=O)[O-])cc2)CC(C)N1N (centres undefined),survivor count,"dose: 200.0 mg/kg/injection, schedule: Q01DX005 (ip), vehicle: saline with Tween-80",3 of 6
same,survivor count,"dose: 400.0 mg/kg/injection, schedule: Q01DX005 (ip), vehicle: saline with Tween-80",0 of 6
O=C(Cc1ccccn1)NCCc1ccccc1,survivor count,"dose: 300.0 mg/kg/injection, schedule: Q01DX009 (ip), vehicle: saline",2 of 6
Cc1cc(N=Nc2ccc([N+](=O)[O-])cc2)ccc1O,survivor count,[7],0 of 6
O=C(Nc1ccc(Cl)cc1C(=O)c1ccccc1)c1ccc(Cl)cc1Cl,survivor count,"dose: 200.0 mg/kg/injection, schedule: Q04DX002 (ip), vehicle: Klucel (hydroxypropylcellulose) (HPC)",3 of 3
Cc1csc2nccc(Cl)c12,survivor count,"dose: 200.0 mg/kg/injection, schedule: Q04DX002 (ip), vehicle: saline with Tween-80",2 of 3
O=C(Nc1ccccc1Cl)Oc1ccc(Cl)cc1Cc1ccccc1,survivor count,[8],3 of 6
CCOC(=O)C(C#N)C(C)(C[N+](=O)[O-])C1CC1 (centres undefined),survivor count,"dose: 6.25 mg/kg/injection, schedule: Q04DX003 (ip), vehicle: saline with Tween-80",0 of 6
same,survivor count,"dose: 12.5 mg/kg/injection, schedule: Q04DX003 (ip), vehicle: saline with Tween-80",0 of 6
same,survivor count,"dose: 25.0 mg/kg/injection, schedule: Q04DX003 (ip), vehicle: saline with Tween-80",0 of 6
same,survivor count,"dose: 100.0 mg/kg/injection, schedule: Q04DX003 (ip), vehicle: saline with Tween-80",0 of 6
same,survivor count,[9],0 of 6
same,survivor count,[3],0 of 6
Cc1nc(N)nc2c1CCC(O)S2 (centres undefined),survivor count,"dose: 100.0 mg/kg/injection, schedule: Q01DX001 (ip), vehicle: Klucel (hydroxypropylcellulose) (HPC)",3 of 3
same,survivor count,[7],3 of 3
Nc1nc(N)c2cc(CNc3ccc(C(=O)NC(CC(=O)O)CC(=O)O)cc3)ccc2n1,T/C,"dose: 12.5 mg/kg/injection, schedule: Q01DX009 (ip), vehicle: saline",137 % of control
same,T/C,"dose: 25.0 mg/kg/injection, schedule: Q01DX009 (ip), vehicle: saline",144 % of control
same,T/C,"dose: 50.0 mg/kg/injection, schedule: Q01DX009 (ip), vehicle: other",143 % of control
same,T/C,"dose: 89.0 mg/kg/injection, schedule: Q01DX001 (ip), vehicle: other",142 % of control
same,T/C,[10],141 % of control
CN(C)C(C#N)C(=O)c1ccccc1 (centres undefined),survivor count,"dose: 200.0 mg/kg/injection, schedule: Q01DX001 (ip), vehicle: saline",1 of 6 and 6 of 6
same,survivor count,[4],3 of 6
CC(C)(C)C(=O)CS(=O)(=O)C(Br)C(=O)C(C)(C)C (centres undefined),survivor count,"dose: 200.0 mg/kg/injection, schedule: Q04DX003 (ip), vehicle: Klucel (hydroxypropylcellulose) (HPC)",3 of 6
same,survivor count,"dose: 400.0 mg/kg/injection, schedule: Q04DX003 (ip), vehicle: Klucel (hydroxypropylcellulose) (HPC)",3 of 6
N#CC1(C(N)=O)OC12CCS(=O)(=O)c1ccccc12 (centres undefined),survivor count,[4],4 of 4
CN1CCC2(CC1)SSC1(CCN(C)CC1)S2,survivor count,[2],2 of 6
CCOC(=O)c1ccc(NCC(C)(C)N(C)C)cc1,survivor count,"dose: 100.0 mg/kg/injection, schedule: Q04DX003 (ip), vehicle: saline",1 of 6
same,survivor count,[1],0 of 6
same,survivor count,[2],0 of 6
COc1ccc2nc3cc(Cl)ccc3c(NC(C)CCCN(CCCl)CCCl)c2c1 (centres undefined),survivor count,"dose: 2.0 mg/kg/injection, schedule: Q01DX009 (ip), vehicle: saline",3 of 6
CC(C)=CC(=O)C1C(=O)c2ccccc2C1=O,survivor count,"dose: 200.0 mg/kg/injection, schedule: Q01DX001 (ip), vehicle: carboxymethylcellulose (CMC)",0 of 4
same,survivor count,"dose: 400.0 mg/kg/injection, schedule: Q01DX001 (ip), vehicle: carboxymethylcellulose (CMC)",0 of 4
Cc1ccc(N=NN(C)CC#N)cc1,survivor count,"dose: 200.0 mg/kg/injection, schedule: Q04DX003 (ip), vehicle: other",2 of 6
same,survivor count,"dose: 400.0 mg/kg/injection, schedule: Q04DX003 (ip), vehicle: other",0 of 6
CC[CH2][Sn]([CH2]CC)([CH2]CC)[O][Sn]([CH2]CC)([CH2]CC)[CH2]CC,survivor count,"dose: 4.0 mg/kg/injection, schedule: Q04DX003 (ip), vehicle: saline with Tween-80",6 of 6
C=CCCCCCCCCC(=O)NCc1ccncc1,survivor count,[9],4 of 6
same,survivor count,[3],1 of 6
c1cc[c]([Sn]([c]2ccccc2)([c]2ccccc2)[n]2ccnc2)cc1,survivor count,"dose: 20.0 mg/kg/injection, schedule: Q01DX001 (ip), vehicle: other",3 of 6
same,survivor count,"dose: 40.0 mg/kg/injection, schedule: Q01DX001 (ip), vehicle: other",1 of 6
same,survivor count,"dose: 80.0 mg/kg/injection, schedule: Q01DX001 (ip), vehicle: other",0 of 6
same,survivor count,"dose: 100.0 mg/kg/injection, schedule: Q01DX001 (ip), vehicle: other",0 of 6
same,survivor count,[10],1 of 6
same,survivor count,"dose: 400.0 mg/kg/injection, schedule: Q01DX001 (ip), vehicle: other",0 of 6
CC(C)(Cl)CCl,survivor count,[8],0 of 6
same,survivor count,[3],5 of 6
NC(=O)c1ccc[n+](CC(=O)NCc2ccc(Cl)cc2)c1,survivor count,[1],2 of 6
same,survivor count,[2],0 of 6
C/C=C(/Cl)c1c(C)cc(C)c(CC(=O)O)c1C,survivor count,"dose: 400.0 mg/kg/injection, schedule: Q01DX009 (ip), vehicle: Klucel (hydroxypropylcellulose) (HPC)",6 of 6
COc1cccc(/C=C2\N=C(c3ccccc3)OC2=O)c1,survivor count,[5],6 of 6
same,survivor count,[6],6 of 6
NC(=S)N/N=C/c1ccco1,survivor count,[1],3 of 6
same,survivor count,[4],0 of 6
same,survivor count,[2],0 of 6
CCCCCCCN(CCCCCCC)CC(O)c1cc2ccccc2c2cnccc12 (centres undefined),survivor count,"dose: 400.0 mg/kg/injection, schedule: Q01DX009 (ip), vehicle: other",5 of 6
O=C(O)c1c(Cl)c(Cl)c(Cl)c(Cl)c1-c1c2ccc(=O)c(O)c-2oc2c(O)c(O)ccc12,survivor count,[2],2 of 6
